{
  "source": "patent US20240115649A1",
  "about": "“CASPASE INHIBITION TO ENHANCE REGENERATION AND REPAIR AFTER SKIN OR GUT INJURY AND TO TREAT BACTERIAL OR VIRAL INFECTIONS” (The Johns Hopkins University, priority 2020, published 2024)",
  "key": {"[1]": {"system": "BMDMs", "assay": "BMDM cultures with live S. aureus ± caspase inhibitors", "settings": "live S. aureus 6 hours; Q-VD-OPH 10 μg/mL, Emricasan 9 μg/mL"}, "[2]": {"system": "mouse neutrophils", "assay": "Neutrophil cultures with live S. aureus ± caspase inhibitors", "settings": "live S. aureus 6 hours; Q-VD-OPH 10 μg/mL, Emricasan 9 μg/mL"}},
  "note": "Some results were stated once for a whole list of compounds, not compound by compound. For at least one compound, name, drawing or mass did not settle the structure.",
  "data": [
    {"smiles": "CC(C)[C@H](NC(=O)c1ccc2ccccc2n1)C(=O)N[C@@H](CC(=O)O)C(=O)COc1c(F)cccc1F", "note": "[Q-VD-OPH, Quinoline-val-asp-difluorophenoxymethyl ketone]", "values": [
      {"measurement": "percentages of Annexin V+ BMDMs", "setting": "[1]", "value": "< 3", "unit": "%"},
      {"measurement": "percentages of Annexin V+ neutrophils", "setting": "[2]", "value": "< 3", "unit": "%"}
    ]}
  ]
}
